According to article PMC6588254:
No constants are given. Whether binding was seen depends on the method and setting. In cells and extracts the contact can be indirect. Some binding calls cover weakened binding; strength is not graded here. For some of these results: Where a sequence is shown, tags or fusion partners need not be part of it.

By UniProt entry, the sequences of proteins in these tests, tags left out. Where a name states a change or a piece, a line headed by the entry shows the natural chain unless it says otherwise. Chains listed by the source or under a name are the forms on record and can include a tag or linker. Residues count along the entry.
UniProt P03204: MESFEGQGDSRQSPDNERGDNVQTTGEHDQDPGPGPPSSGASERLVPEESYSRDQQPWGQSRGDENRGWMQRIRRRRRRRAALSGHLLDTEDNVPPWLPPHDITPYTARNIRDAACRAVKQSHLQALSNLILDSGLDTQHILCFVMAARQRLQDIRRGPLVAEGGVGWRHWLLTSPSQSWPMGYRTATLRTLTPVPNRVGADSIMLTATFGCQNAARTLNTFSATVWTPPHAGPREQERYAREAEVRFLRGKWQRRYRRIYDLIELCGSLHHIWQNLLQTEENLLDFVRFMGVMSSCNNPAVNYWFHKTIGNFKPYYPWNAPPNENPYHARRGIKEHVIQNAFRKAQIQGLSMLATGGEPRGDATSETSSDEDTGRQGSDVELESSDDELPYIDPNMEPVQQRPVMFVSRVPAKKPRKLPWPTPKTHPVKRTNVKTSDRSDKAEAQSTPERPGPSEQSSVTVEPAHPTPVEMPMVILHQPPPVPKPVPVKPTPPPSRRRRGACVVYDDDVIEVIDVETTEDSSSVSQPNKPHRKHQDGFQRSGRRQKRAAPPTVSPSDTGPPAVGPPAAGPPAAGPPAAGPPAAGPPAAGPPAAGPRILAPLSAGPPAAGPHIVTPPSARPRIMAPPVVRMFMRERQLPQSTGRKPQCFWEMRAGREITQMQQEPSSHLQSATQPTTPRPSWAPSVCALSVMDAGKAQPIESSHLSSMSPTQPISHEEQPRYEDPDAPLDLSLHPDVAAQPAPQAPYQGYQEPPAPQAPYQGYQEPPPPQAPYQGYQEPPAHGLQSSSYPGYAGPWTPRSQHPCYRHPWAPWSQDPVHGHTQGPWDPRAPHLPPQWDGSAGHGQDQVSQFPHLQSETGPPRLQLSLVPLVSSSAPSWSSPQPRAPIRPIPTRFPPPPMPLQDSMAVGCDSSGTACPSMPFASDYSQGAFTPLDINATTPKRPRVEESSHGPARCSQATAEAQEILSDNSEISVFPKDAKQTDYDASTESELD
Myc-tagged EBNA3C 1-365aa: residues 1-365 of P03204
Myc-tagged EBNA3C 100-200aa: residues 100-200 of P03204

B1: METTL14 (endogenous) (protein, UniProt Q9HCE5 1-456)
chain: MDSRLQEIRERQKLRRQLLAQQLGAESADSIGAVLNSKDEQREIAETRETCRASYDTSAPNAKRKYLDEGETDEDKMEEYKDELEMQQDEENLPYEEEIYKDSSTFLKGTQSLNPHNDYCQHFVDTGHRPQNFIRDVGLADRFEEYPKLRELIRLKDELIAKSNTPPMYLQADIEAFDIRELTPKFDVILLEPPLEEYYRETGITANEKCWTWDDIMKLEIDEIAAPRSFIFLWCGSGEGLDLGRVCLRKWGYRRCEDICWIKTNKNNPGKTKTLDPKAVFQRTKEHCLMGIKGTVKRSTDGDFIHANVDIDLIITEEPEIGNIEKPVEIFHIIEHFCLGRRRLHLFGRDSTIRPGWLTVGPTLTNSNYNAETYASYFSAPNSYLTGCTEEIERLRPKSPPPKSKSDRGGGAPRGGGRGGTSAGRGRERNRSNFRGERGGFRGGRGGAHRGGFPPR
B2: Flag-tagged METTL14 (protein, UniProt Q9HCE5 1-456)
chain: B1 chain

Experiments:
[1] = target: EBNA3C (EBV latent antigen, as expressed in B-cell lines) (Epstein-Barr virus (endogenous in EBV-transformed LcLs; stably expressed in BJAB7)) (UniProt P03204); assay: co-IP; 30 million BJAB, BJAB7 and LcL cells lysed with RIPA buffer; IP with EBNA3C antibody or with METTL14 antibody, protein A/G Sepharose, 4°C overnight; western blot of endogenous EBNA3C and METTL14
[2] = target: Myc-tagged EBNA3C 1-365aa (Epstein-Barr virus) (UniProt P03204); assay: co-IP; HEK293 cells co-transfected with Myc-tagged EBNA3C (full length or regions) and Flag-tagged METTL14, lysed with RIPA buffer 48 hours later; IP with Myc or Flag antibody (Myc antibody only for the 1-100, 100-200, 200-300 regions), protein A/G Sepharose, 4°C overnight; western blot
[3] = target: Myc-tagged EBNA3C 100-200aa (Epstein-Barr virus) (UniProt P03204); assay: as above
[4] = target: Myc-tagged full-length EBNA3C (1-992aa) (Epstein-Barr virus) (UniProt P03204); assay: as above

Row | Binder | binding [1] | binding [2] | binding [3] | binding [4]
1 | B1 | binds | – | – | –
2 | B2 | – | binds | binds | binds
